Among the data in paper doi:10.1101/2023.05.30.542914 (bioRxiv, 2023) are binding values, retold here.

By UniProt entry, the sequences of proteins in these tests, tags left out.
UniProt P53621: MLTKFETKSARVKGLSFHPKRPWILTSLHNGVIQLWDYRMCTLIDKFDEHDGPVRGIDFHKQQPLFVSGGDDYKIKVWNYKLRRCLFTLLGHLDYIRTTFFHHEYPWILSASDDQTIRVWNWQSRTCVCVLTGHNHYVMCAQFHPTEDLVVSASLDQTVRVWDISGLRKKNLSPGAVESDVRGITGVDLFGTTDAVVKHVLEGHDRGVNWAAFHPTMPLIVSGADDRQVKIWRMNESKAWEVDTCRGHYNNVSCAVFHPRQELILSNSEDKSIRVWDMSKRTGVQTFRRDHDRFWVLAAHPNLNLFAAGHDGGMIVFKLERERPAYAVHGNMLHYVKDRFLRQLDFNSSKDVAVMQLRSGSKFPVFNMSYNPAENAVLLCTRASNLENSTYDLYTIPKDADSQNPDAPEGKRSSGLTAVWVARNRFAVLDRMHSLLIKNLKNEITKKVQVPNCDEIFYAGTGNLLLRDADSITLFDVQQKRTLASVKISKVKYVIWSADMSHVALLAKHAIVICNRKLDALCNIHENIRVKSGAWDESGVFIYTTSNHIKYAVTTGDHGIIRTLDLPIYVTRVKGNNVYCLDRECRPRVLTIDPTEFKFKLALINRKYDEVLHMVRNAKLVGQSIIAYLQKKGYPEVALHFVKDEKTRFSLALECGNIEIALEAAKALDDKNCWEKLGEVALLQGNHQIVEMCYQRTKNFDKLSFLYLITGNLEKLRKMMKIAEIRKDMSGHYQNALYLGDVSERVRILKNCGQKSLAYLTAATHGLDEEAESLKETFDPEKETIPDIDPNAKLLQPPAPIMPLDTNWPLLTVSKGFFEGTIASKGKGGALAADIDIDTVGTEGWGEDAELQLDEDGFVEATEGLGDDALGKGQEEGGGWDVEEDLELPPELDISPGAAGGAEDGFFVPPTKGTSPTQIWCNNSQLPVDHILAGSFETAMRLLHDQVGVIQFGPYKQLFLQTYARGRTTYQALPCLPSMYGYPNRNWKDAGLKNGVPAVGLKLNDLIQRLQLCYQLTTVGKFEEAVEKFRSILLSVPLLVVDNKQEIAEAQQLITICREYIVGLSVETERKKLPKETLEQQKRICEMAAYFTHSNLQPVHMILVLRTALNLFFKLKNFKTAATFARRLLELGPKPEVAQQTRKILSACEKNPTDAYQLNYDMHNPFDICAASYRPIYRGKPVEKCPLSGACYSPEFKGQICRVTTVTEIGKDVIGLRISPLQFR

This assay addresses T1, Wnt7a-HA, full length (Wnt7a-FL) (human) (UniProt O00755).
T1 sequence: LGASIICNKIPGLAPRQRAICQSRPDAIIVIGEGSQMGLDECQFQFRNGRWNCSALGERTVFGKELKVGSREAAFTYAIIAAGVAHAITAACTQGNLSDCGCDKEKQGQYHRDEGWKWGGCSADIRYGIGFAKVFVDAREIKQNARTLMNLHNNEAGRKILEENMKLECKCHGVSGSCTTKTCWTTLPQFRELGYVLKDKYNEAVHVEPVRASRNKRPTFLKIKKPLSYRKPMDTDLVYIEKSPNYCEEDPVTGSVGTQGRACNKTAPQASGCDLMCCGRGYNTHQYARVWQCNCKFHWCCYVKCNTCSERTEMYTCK
Briefly: affinity purification with mass spectrometry.

These are yes or no findings as the source states them, for the method shown. Binding seen in cells or lysates may run through a third protein. These calls come from enrichment with a bait or labelling near it, and not all partners need be listed. Tags and fused reporters may be left off the sequences shown.

For COPA (from UniProt P53621), the binding entry is reported as “binds”.

B1: COPB2 (protein, UniProt P35606 1-906)
chain: MPLRLDIKRKLTARSDRVKSVDLHPTEPWMLASLYNGSVCVWNHETQTLVKTFEVCDLPVRAAKFVARKNWVVTGADDMQIRVFNYNTLERVHMFEAHSDYIRCIAVHPTQPFILTSSDDMLIKLWDWDKKWSCSQVFEGHTHYVMQIVINPKDNNQFASASLDRTIKVWQLGSSSPNFTLEGHEKGVNCIDYYSGGDKPYLISGADDRLVKIWDYQNKTCVQTLEGHAQNVSCASFHPELPIIITGSEDGTVRIWHSSTYRLESTLNYGMERVWCVASLRGSNNVALGYDEGSIIVKLGREEPAMSMDANGKIIWAKHSEVQQANLKAMGDAEIKDGERLPLAVKDMGSCEIYPQTIQHNPNGRFVVVCGDGEYIIYTAMALRNKSFGSAQEFAWAHDSSEYAIRESNSIVKIFKNFKEKKSFKPDFGAESIYGGFLLGVRSVNGLAFYDWDNTELIRRIEIQPKHIFWSDSGELVCIATEESFFILKYLSEKVLAAQETHEGVTEDGIEDAFEVLGEIQEIVKTGLWVGDCFIYTSSVNRLNYYVGGEIVTIAHLDRTMYLLGYIPKDNRLYLGDKELNIISYSLLVSVLEYQTAVMRRDFSMADKVLPTIPKEQRTRVAHFLEKQGFKQQALTVSTDPEHRFELALQLGELKIAYQLAVEAESEQKWKQLAELAISKCQFGLAQECLHHAQDYGGLLLLATASGNANMVNKLAEGAERDGKNNVAFMSYFLQGKVDACLELLIRTGRLPEAAFLARTYLPSQVSRVVKLWRENLSKVNQKAAESLADPTEYENLFPGLKEAFVVEEWVKETHADLWPAKQYPLVTPNEERNVMEEGKDFQPSRSTAQQELDGKPASPTPVIVASHTANKEEKSLLELEVDLDNLELEDIDTTDINLDEDILDD
As for B1, the binding entry is reported as “binds”.
